# Assay results taken from PMC7819943, “Rice protein-binding microarrays: a tool to detect cis-acting elements near promoter regions in rice”.
# By UniProt entry, the sequences of proteins in these tests, tags left out.
# UniProt Q0JBA9, entry or part of it: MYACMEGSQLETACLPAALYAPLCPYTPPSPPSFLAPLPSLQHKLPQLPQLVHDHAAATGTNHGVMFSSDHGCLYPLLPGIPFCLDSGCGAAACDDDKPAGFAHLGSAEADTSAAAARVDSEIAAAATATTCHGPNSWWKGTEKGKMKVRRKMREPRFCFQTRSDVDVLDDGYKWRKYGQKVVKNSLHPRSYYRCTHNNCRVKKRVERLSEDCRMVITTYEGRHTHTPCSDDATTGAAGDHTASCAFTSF
# This is one part of the list.
# Molecular target: OsWRKY34 (Oryza sativa, UniProt Q0JBA9 1-250)
# Assay: protein-binding microarray (RPBM); PBS, 2% BSA, 51.3 ng/ul salmon testes DNA, 50 uM zinc acetate, 200 nM TF, 25 C, 1 h; high values mean tight binding
# Conditions: protein: recombinant; tags: N-terminal polyhistidine and DsRed monomer fusion (pET32a); label: CyDye5-dUTP incorporated in the synthesized complementary strand; 3' TTTTT single-stranded linker to array surface; dsDNA, one strand shown
# Summary of the method: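 Transcription factors, each fused N-terminally to a polyhistidine tag and DsRed, were expressed in E. coli BL21-CodonPlus and purified on Ni–NTA. A custom Agilent array was made double-stranded by primer extension with Cy5-dUTP and blocked with 2% BSA. It was incubated with 200 nM protein in PBS, 2% BSA, salmon testes DNA and 50 µM zinc acetate at 25 °C for 1 h, then washed. The binding signal is per-feature fluorescence intensity (arbitrary units) read on an Axon 4000B scanner.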
row,Sequence,binding signal
1,ATGTACATCTCTCGCGATCCAATCCATGTCTCGTCTCTATCGGAGTCACCTAGTGCAG,9620 fluorescence intensity (a.u.)
2,GAATCGTAACCCATGTTTTTAAATTTTTATTTTTGTTCGGCGGAGTCACCTAGTGCAG,8470 fluorescence intensity (a.u.)
3,CCTGCAGAAGTCTCCATCCTTGCATCACACGTACACATCTCGGAGTCACCTAGTGCAG,11500 fluorescence intensity (a.u.)
4,ACCCACTTTGTTGTCTAATTTTTGTAGACTGGACAAGTATCGGAGTCACCTAGTGCAG,8730 fluorescence intensity (a.u.)
5,GCCCGTGCACATCAACGCCGCCACCTCCACCAAATTCGGCCGGAGTCACCTAGTGCAG,11400 fluorescence intensity (a.u.)
6,AGACGCATTAATTTGTTCACCACTCGATCCTCGCCATTACCGGAGTCACCTAGTGCAG,8270 fluorescence intensity (a.u.)
7,ATGACAGTTTTTTCAGTAATTCTCTCTCTTTTTTTCAGCACGGAGTCACCTAGTGCAG,9940 fluorescence intensity (a.u.)
8,TGATGCCACCCTGTATATCCTATGGATCCCAACTATGGCTCGGAGTCACCTAGTGCAG,8140 fluorescence intensity (a.u.)
9,TTTTCGTTTCCAAAGTTTGTTGTTGTTCTTCGTGTTGATTCGGAGTCACCTAGTGCAG,8670 fluorescence intensity (a.u.)
10,CTCCATCCCGCGGCGGCCGTGAGCACCAACACTCACGCATCGGAGTCACCTAGTGCAG,9230 fluorescence intensity (a.u.)
11,ATTACCAGTAGTTTATAGTGTTTGCTTTTTCTCATATATTCGGAGTCACCTAGTGCAG,11100 fluorescence intensity (a.u.)
12,TGAGTTTATTTTTTATATGGTTGGTTCGTGTGAGTTCCTACGGAGTCACCTAGTGCAG,8280 fluorescence intensity (a.u.)
13,GTCTTATCATCTCTCTCCCCTTTCCATTTTTACCTCTATCCGGAGTCACCTAGTGCAG,8100 fluorescence intensity (a.u.)
14,ACCTAGCTACTCTCGATCGATCGACCGCCCGCCCGCCATGCGGAGTCACCTAGTGCAG,10400 fluorescence intensity (a.u.)
15,ACGACACTCTGCTCCTTTCTCTCACACACACACTCTGCACCGGAGTCACCTAGTGCAG,9210 fluorescence intensity (a.u.)
16,GACATTTTCTTCCCCTCGAAGATATCCATGTGTATGTCAACGGAGTCACCTAGTGCAG,8270 fluorescence intensity (a.u.)
17,CGGTTAATATTTTTGTTCTTTACAGACTCTTCATTCATTTCGGAGTCACCTAGTGCAG,8380 fluorescence intensity (a.u.)
18,TTATTCATCTAAGTCTATGTTCTTATTTTGTTTGACAGGTCGGAGTCACCTAGTGCAG,9300 fluorescence intensity (a.u.)
19,AAGATGTGCAGAACTCCCCGTGTTTTTTTCTTGGATTGTTCGGAGTCACCTAGTGCAG,8480 fluorescence intensity (a.u.)
20,TGCTAATTTTATTGTTAATTTAACTCGTATCTTGTGGCAACGGAGTCACCTAGTGCAG,8250 fluorescence intensity (a.u.)
21,TGTGTGGTCGGGTCGGCTCAGCTGGAGTGAGGTCGAGGAGCGGAGTCACCTAGTGCAG,8640 fluorescence intensity (a.u.)

row,Sequence,binding signal
1,TGCGTGTTTTATGATTACCTATGTTTCTGTTGTGTTTTAACGGAGTCACCTAGTGCAG,15300 fluorescence intensity (a.u.)
2,ATTTTGATGGCGTTTCTTTTTTTTTTTTGTGGCACAGTTCCGGAGTCACCTAGTGCAG,8360 fluorescence intensity (a.u.)
3,GGGACGACACATGCTATACATCTCTCCAAATTGTTATCCACGGAGTCACCTAGTGCAG,10300 fluorescence intensity (a.u.)
4,TATTTCTTGCCACTAAAGTGCCCAATTGTTTGGTTGTGTACGGAGTCACCTAGTGCAG,8710 fluorescence intensity (a.u.)
5,CCCACATTTTCCCGGCCGTCGTTCCCGCCGACGAGCTCTTCGGAGTCACCTAGTGCAG,9560 fluorescence intensity (a.u.)
6,ACACCTCATCAACATGTACACTCCTATGTAGGTCAGCAGCCGGAGTCACCTAGTGCAG,10800 fluorescence intensity (a.u.)
7,AATATTCTTTCGCTATTTGCTGAAACATTGTTTTTATATACGGAGTCACCTAGTGCAG,8610 fluorescence intensity (a.u.)
8,ATCATCCAACCGACGGTCCAACTGTCCAACTGTCCAGCCCCGGAGTCACCTAGTGCAG,9340 fluorescence intensity (a.u.)
9,ACCCTAACCCGCGATCCGCCTCCGCCGCCGCCACCACCACCGGAGTCACCTAGTGCAG,9140 fluorescence intensity (a.u.)
10,CCATTCTCCCTGTACTTGCATGCTTCAGTTCTTGATTTGCCGGAGTCACCTAGTGCAG,9220 fluorescence intensity (a.u.)
11,CCTAGTCGTTTTAAATACCCAGCATATATATCATAGTATCCGGAGTCACCTAGTGCAG,9060 fluorescence intensity (a.u.)
12,GATCGTTCGCGATCAATCCGCCGCCGCCGCTTTTCTCCTCCGGAGTCACCTAGTGCAG,8360 fluorescence intensity (a.u.)
13,GTTCAATAGAGTTATCATTTACCAACTTGTGATTTATTATCGGAGTCACCTAGTGCAG,8750 fluorescence intensity (a.u.)
14,CTTGTAGTAGGATGTGCATTCCTTTGTCTCGTCCTTTCTCCGGAGTCACCTAGTGCAG,8630 fluorescence intensity (a.u.)
15,TCTCCCGAGCGGCGCCGTCCCTCCCTCCGCCCGCCGTCCCCGGAGTCACCTAGTGCAG,9980 fluorescence intensity (a.u.)
16,GCATTACAGCCAAACCCCGTTATGTCCGTTTTCTCAAACTCGGAGTCACCTAGTGCAG,9160 fluorescence intensity (a.u.)
17,TTTGCATTAGTTAGTCAGTCCATGCTATTTATAACAGAACCGGAGTCACCTAGTGCAG,8650 fluorescence intensity (a.u.)
18,GCGGGGAGGGCTCAAGCGATCGAGGGCGCGTGGTGGGGAGCGGAGTCACCTAGTGCAG,8980 fluorescence intensity (a.u.)
19,GTACTTGTCACTTGATCTGTTTCTGTCGCCTCATTTATCTCGGAGTCACCTAGTGCAG,12100 fluorescence intensity (a.u.)
20,TTAGTAATCTTCATTTGTTTTGCATACTAGTTTTGCATATCGGAGTCACCTAGTGCAG,8100 fluorescence intensity (a.u.)
21,ATATTTAGGTTCGTTGGTCTTGATTTATATACACTCTAAACGGAGTCACCTAGTGCAG,8040 fluorescence intensity (a.u.)

# Another view of part of the listing above:
row	Sequence	binding signal
13	GTTCAATAGAGTTATCATTTACCAACTTGTGATTTATTATCGGAGTCACCTAGTGCAG	8750 fluorescence intensity (a.u.)
14	CTTGTAGTAGGATGTGCATTCCTTTGTCTCGTCCTTTCTCCGGAGTCACCTAGTGCAG	8630 fluorescence intensity (a.u.)
15	TCTCCCGAGCGGCGCCGTCCCTCCCTCCGCCCGCCGTCCCCGGAGTCACCTAGTGCAG	9980 fluorescence intensity (a.u.)
16	GCATTACAGCCAAACCCCGTTATGTCCGTTTTCTCAAACTCGGAGTCACCTAGTGCAG	9160 fluorescence intensity (a.u.)
